# According to the supplement of paper PMC11006884:
# Only a part is listed here, and it is no random draw. The data scatter; read single values as rough.
# Compound: COC(=O)/C=C/c1ccccc1 [methyl cinnamate]
# Experiment: log2 ratio of iodoacetamide-alkyne labeling of the cysteine site, DMSO over compound (competition); higher = stronger covalent engagement of the cysteine by the compound, active = 1 or more
# Conditions: 500 µM; treatment time 1 h; system: HEK293T cell lysate
# Method in brief: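 Three replicates, each with duplicate channels, were prepared from HEK293T lysate (2 mg/mL) treated with vehicle or electrophile at 500 µM for 1 h at ambient temperature. Iodoacetamide alkyne was then applied for 1 h, and samples were clicked to sCIP-TMT reagents, pooled, trypsin-digested overnight at 37 °C, enriched on streptavidin, acid-eluted and analysed on Orbitrap Eclipse LC-MS/MS with FAIMS, with FragPipe quantification. The log2 competition ratio per cysteine is the mean control-channel divided by the mean compound-channel reporter intensity. Cysteines quantified in only one replicate were left out.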
row,Target,log2 ratio of iodoacetamide-alkyne labeling
1,PSMA4 C163 (UniProt P25789),inactive: 0.196
2,APEX1 C310 (UniProt P27695),inactive: -0.163
3,DNMT1 C751 (UniProt P26358),inactive: -0.314
4,ANXA7 C363 (UniProt P20073),inactive: 0.0358
5,PEBP1 C133 (UniProt P30086),inactive: 0.186
6,GART C298 (UniProt P22102),inactive: -0.13
7,RPL10 C49 (UniProt P27635),inactive: -3e-05
8,CSRP1 C122 (UniProt P21291),inactive: -0.092
9,CAD C183 (UniProt P27708),inactive: 0.299
10,TPP2 C150 (UniProt P29144),inactive: 0.325
11,ATP6V1B2 C112 (UniProt P21281),inactive: 0.0501
12,PSMC3 C387 (UniProt P17980),inactive: 0.0271
13,CAST C413 (UniProt P20810),inactive: 0.359
14,POLD1 C873 (UniProt P28340),inactive: 0.153
15,PSMA1 C148 (UniProt P25786),inactive: 0.0475
16,VARS C112 (UniProt P26640),inactive: -0.281
17,LMNB1 C317 (UniProt P20700),inactive: 0.274
18,VDAC1 C127 (UniProt P21796),inactive: 0.0875
19,NDUFV2 C225 (UniProt P19404),inactive: 0.00595
20,XRCC1 C362 (UniProt P18887),inactive: 0.0239
21,ARF4 C62 (UniProt P18085),inactive: -0.0182

# A different layout for some results above.
row	Target	log2 ratio of iodoacetamide-alkyne labeling
11	ATP6V1B2 C112 (UniProt P21281)	inactive: 0.0501
21	ARF4 C62 (UniProt P18085)	inactive: -0.0182
